# Source: the supplement of paper PMC11732987, “Enantioselective OTUD7B fragment discovery through chemoproteomics screening and high-throughput optimisation” (Communications Chemistry, 2025)
# Protein sequences, listed by entry. Tags and fused reporters are not part of them. Lines headed by an entry give the natural chain unless they say otherwise; changes in a name come on top. Residues count along the entry.
# UniProt Q01968: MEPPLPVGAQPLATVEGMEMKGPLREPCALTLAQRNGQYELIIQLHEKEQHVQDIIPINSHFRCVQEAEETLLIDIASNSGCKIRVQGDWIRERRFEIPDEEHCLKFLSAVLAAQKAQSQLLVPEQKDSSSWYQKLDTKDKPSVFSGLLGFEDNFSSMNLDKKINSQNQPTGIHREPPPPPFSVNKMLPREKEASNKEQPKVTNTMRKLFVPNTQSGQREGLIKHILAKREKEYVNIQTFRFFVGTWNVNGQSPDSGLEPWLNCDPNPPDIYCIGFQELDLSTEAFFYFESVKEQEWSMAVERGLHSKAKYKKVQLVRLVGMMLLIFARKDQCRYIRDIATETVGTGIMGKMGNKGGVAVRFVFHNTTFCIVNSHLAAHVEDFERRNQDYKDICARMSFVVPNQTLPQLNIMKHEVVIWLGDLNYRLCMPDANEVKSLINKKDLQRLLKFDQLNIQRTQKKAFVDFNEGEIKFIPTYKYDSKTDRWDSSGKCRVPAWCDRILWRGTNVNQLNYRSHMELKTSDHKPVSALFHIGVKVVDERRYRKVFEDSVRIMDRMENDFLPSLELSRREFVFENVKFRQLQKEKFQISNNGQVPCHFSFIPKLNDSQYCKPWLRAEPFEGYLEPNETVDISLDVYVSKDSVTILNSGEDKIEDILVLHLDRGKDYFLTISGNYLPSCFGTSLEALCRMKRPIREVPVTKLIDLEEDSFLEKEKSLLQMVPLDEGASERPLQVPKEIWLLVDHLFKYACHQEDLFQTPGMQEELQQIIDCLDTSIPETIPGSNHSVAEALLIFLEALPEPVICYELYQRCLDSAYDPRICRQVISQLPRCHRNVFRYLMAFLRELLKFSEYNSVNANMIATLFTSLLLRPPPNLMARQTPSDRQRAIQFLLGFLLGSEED
# UniProt Q96L73: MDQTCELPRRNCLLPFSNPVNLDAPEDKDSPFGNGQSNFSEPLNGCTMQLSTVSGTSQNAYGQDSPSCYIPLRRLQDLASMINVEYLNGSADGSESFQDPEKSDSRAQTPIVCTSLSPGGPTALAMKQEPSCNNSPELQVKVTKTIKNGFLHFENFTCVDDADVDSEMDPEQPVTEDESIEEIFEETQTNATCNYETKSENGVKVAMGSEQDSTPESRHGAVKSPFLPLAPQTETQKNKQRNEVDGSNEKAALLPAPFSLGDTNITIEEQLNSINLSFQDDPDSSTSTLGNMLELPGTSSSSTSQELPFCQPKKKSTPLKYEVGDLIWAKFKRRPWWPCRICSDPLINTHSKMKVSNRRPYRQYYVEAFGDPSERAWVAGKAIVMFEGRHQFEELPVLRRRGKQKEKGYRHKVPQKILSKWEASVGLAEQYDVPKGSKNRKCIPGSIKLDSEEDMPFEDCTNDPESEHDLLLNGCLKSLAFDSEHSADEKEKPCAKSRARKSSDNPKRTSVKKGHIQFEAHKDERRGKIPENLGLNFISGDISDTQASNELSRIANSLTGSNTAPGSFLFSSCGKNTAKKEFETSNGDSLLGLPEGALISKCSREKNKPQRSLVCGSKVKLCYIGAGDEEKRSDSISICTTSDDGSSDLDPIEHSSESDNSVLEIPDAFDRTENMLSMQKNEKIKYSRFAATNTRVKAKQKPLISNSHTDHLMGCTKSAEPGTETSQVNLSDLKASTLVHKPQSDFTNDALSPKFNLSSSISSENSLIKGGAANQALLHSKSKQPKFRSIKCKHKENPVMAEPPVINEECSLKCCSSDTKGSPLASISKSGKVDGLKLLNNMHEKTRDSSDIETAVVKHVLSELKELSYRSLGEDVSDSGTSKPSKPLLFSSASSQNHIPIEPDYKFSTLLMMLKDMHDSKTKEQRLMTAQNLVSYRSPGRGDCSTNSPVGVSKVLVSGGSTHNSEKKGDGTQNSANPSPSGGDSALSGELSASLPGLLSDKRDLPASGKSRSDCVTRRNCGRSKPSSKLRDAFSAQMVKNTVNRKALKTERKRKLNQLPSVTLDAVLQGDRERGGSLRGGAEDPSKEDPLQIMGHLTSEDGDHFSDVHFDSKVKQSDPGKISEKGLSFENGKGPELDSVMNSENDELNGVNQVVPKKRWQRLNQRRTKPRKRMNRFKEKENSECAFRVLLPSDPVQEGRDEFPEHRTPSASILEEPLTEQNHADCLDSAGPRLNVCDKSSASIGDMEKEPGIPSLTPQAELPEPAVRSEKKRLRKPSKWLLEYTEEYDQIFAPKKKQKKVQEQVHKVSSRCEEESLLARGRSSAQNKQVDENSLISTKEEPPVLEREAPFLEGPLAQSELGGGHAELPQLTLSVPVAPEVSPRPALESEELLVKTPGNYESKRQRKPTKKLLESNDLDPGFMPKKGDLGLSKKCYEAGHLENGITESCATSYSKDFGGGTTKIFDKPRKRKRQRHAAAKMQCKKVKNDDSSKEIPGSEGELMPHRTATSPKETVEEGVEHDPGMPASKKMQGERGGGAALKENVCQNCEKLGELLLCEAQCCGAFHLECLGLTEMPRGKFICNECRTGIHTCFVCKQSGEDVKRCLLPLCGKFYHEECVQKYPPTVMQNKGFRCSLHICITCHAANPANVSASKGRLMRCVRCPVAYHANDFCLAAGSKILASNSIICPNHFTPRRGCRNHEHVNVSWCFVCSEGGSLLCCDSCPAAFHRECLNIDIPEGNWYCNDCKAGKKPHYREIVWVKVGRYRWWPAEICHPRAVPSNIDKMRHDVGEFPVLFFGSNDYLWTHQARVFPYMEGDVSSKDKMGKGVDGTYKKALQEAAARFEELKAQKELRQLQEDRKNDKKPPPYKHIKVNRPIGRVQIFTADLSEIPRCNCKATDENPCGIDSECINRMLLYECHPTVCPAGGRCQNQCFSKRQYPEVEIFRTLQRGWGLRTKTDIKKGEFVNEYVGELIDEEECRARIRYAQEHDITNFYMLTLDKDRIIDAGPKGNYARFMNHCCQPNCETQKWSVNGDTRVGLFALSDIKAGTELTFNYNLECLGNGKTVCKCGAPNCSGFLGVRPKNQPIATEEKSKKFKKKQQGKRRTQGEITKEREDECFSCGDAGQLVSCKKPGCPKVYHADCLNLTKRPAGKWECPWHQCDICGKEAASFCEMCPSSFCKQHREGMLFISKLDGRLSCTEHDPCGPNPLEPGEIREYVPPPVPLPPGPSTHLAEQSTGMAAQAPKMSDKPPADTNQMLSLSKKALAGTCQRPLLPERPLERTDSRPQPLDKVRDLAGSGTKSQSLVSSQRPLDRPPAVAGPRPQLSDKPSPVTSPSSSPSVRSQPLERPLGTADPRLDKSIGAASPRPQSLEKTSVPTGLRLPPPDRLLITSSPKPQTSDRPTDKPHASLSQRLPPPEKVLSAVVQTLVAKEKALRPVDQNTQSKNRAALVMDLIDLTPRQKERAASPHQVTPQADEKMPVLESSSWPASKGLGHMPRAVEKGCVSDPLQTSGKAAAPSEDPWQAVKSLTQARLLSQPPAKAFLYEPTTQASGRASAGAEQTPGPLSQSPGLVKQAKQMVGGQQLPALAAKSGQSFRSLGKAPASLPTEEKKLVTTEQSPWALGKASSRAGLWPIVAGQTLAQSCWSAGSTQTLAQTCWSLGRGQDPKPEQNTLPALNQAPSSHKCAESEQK
# UniProt P78549, 99-118: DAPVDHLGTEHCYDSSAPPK
# UniProt Q92621: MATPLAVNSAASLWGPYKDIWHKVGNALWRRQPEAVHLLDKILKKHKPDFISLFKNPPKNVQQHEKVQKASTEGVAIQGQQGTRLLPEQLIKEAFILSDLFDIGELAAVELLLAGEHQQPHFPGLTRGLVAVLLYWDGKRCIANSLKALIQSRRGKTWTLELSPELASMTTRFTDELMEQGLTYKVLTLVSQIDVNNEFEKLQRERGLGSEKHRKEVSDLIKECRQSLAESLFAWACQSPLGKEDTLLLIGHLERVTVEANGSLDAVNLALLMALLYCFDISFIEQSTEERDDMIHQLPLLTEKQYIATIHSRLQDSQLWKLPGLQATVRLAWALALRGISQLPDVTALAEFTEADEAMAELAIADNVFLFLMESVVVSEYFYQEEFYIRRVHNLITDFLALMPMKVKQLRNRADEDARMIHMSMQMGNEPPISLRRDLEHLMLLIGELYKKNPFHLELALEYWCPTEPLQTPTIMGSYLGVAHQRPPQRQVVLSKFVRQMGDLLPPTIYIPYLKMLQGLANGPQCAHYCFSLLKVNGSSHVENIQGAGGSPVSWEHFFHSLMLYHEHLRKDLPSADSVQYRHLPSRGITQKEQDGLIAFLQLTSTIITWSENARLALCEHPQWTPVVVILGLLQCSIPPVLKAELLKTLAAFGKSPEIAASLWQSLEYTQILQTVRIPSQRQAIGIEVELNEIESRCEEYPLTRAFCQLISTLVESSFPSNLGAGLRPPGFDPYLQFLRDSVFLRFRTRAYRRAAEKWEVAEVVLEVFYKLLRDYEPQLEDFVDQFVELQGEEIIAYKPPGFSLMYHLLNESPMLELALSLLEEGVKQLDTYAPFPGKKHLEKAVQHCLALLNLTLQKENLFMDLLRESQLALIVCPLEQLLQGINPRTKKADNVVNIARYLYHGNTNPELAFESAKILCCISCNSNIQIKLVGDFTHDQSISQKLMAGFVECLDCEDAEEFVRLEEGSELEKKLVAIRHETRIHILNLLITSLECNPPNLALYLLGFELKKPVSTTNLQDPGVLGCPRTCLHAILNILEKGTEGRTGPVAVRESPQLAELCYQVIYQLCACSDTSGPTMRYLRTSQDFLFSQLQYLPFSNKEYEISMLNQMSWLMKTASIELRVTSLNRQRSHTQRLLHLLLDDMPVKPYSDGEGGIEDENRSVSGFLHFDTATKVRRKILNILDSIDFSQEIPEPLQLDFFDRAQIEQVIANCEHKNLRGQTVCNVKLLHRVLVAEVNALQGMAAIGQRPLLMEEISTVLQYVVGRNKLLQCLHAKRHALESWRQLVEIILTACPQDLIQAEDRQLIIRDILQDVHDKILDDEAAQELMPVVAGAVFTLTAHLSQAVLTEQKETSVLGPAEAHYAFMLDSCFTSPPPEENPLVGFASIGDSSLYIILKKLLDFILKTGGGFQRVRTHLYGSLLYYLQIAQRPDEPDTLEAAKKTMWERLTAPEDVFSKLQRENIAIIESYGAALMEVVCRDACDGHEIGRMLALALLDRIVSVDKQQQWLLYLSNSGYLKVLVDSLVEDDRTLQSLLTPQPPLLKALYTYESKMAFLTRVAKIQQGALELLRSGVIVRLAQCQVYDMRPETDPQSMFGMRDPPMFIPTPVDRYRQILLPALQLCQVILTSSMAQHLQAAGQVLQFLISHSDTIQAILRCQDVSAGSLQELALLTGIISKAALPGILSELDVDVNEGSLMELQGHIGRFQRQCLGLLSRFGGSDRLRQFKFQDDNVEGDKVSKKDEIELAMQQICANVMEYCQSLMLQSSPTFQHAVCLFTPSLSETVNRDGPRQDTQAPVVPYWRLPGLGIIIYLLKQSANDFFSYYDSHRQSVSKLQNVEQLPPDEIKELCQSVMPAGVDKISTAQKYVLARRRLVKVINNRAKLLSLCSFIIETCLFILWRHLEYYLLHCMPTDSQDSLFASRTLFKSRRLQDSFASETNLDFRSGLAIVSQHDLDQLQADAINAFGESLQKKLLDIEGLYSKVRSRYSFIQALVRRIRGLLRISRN
# UniProt O15381: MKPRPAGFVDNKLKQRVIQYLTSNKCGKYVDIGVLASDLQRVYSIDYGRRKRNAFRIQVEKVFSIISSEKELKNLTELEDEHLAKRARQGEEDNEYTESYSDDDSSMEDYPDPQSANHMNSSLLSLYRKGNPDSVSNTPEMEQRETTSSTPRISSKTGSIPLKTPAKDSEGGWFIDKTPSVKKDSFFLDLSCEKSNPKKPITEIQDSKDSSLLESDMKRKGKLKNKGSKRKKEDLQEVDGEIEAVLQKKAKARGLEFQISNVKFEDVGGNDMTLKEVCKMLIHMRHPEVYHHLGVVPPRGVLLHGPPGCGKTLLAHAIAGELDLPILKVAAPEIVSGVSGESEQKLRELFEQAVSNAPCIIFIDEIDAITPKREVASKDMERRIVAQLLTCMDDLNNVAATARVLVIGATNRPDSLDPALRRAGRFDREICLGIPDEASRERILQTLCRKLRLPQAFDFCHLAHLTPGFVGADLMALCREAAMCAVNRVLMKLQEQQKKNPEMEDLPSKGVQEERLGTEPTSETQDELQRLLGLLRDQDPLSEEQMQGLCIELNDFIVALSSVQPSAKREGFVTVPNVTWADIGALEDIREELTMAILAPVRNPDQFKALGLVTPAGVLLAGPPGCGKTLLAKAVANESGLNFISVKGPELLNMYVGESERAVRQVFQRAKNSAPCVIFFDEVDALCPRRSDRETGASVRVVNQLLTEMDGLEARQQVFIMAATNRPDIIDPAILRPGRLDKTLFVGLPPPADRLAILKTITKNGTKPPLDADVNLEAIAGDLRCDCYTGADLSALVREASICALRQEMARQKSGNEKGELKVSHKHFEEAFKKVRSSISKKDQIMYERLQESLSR
# UniProt P04150, 367-386: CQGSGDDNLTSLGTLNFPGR
# UniProt Q5SWX8, 214-239: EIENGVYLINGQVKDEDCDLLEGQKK
# The list shows a part of the results. The data scatter; read single values as rough.
# What was measured:
# [1] = compound: ClCC(=O)N[C@@H]1CCCc2ccccc12; assay: log2 mean competition ratio of IA-DTB cysteine labelling (DMSO/compound) (log2 ratio); higher = stronger cysteine engagement by compound; details: treatment time: 4 h, cell line lysate: HEK293T
# Protocol: (§1)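 IA-DTB competitive cysteine chemoproteomics in HEK293T RIPA lysate. Lysates were treated with compound 29 or 30 at 50 or 200 µM for 4 h, then IA-DTB (500 µM, 1 h), trypsin-digested, NeutrAvidin-enriched and analysed by diaPASEF. Competition ratio = intensity DMSO / intensity compound (n=4 treated, n=64 DMSO); binding: mean log2 CR ≥ 1 and p ≤ 0.05 plus QC filters. Target is the cysteine site.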
# [2] = compound: ClCC(=O)N[C@H]1CCCc2ccccc12; assay: as above; details: treatment time: 4 h, cell line lysate: HEK293T
# Protocol: as §1
Target,log2 mean competition ratio ([1]; 50 µM),log2 mean competition ratio ([1]; 200 µM),log2 mean competition ratio ([2]; 50 µM),log2 mean competition ratio ([2]; 200 µM)
OCRL C611 (UniProt Q01968),0.243,0.242,-0.166,0.218
NPAT C1002 (UniProt Q14207),0.327,-0.438,0.192,0.169
NSD1 C944 (UniProt Q96L73),0.0196,-0.157,-0.201,0.0302
NUP160 C1042 (UniProt Q12769),-0.328,0.00859,0.235,0.112
NSA2 C253 (UniProt O95478),0.0153,-0.28,0.26,-0.0621
NSD2 C594 (UniProt O96028),-0.385,0.153,0.00441,-0.0149
OSBPL3 C114 (UniProt Q9H4L5),-0.0208,-0.0646,-0.553,-0.166
OSGEPL1 C390 (UniProt Q9H4B0),0.0812,0.17,-0.152,0.183
NTHL1 C118 (UniProt P78549),0.0079,0.219,0.431,-0.105
NUP205 C1216 (UniProt Q92621),-0.154,0.105,-0.476,-0.0756
NUDT5 C76,-0.00712,-0.0285,0.0525,0.00974
OGDH C395 (UniProt Q02218),-0.121,-0.121,-0.269,-0.0928
NSD1 C342 (UniProt Q96L73),0.332,0.381,0.187,0.383
NSF C264 (UniProt P46459),0.555,0.152,0.382,0.155
NVL C192 (UniProt O15381),-0.106,0.0912,0.0327,0.281
OSBPL1A C297 (UniProt Q9BXW6),0.0954,-0.273,-0.366,0.248
NUP37 C311 (UniProt Q8NFH4),0.0688,-0.317,-0.593,-0.328
NUP107 C621 (UniProt P57740),0.656,-0.347,0.473,-0.205
OGFR C330 (UniProt Q9NZT2),0.0478,-0.275,0.146,-0.224
NPAT C1020 (UniProt Q14207),0.134,0.219,0.489,-0.00556
ORC6 C35 (UniProt Q9Y5N6),0.184,0.183,0.285,0.182
ODAD2 C553,0.102,0.339,-0.563,0.114
NR3C1 C367 (UniProt P04150),-0.0789,0.427,0.331,0.204
ODR4 C231 (UniProt Q5SWX8),-0.607,0.279,-0.444,0.14

# A section from the list above, for reference:
Target,log2 mean competition ratio ([1]; 50 µM),log2 mean competition ratio ([1]; 200 µM),log2 mean competition ratio ([2]; 50 µM),log2 mean competition ratio ([2]; 200 µM)
NSA2 C253 (UniProt O95478),0.0153,-0.28,0.26,-0.0621
NSD2 C594 (UniProt O96028),-0.385,0.153,0.00441,-0.0149
OSBPL3 C114 (UniProt Q9H4L5),-0.0208,-0.0646,-0.553,-0.166
OSGEPL1 C390 (UniProt Q9H4B0),0.0812,0.17,-0.152,0.183
NTHL1 C118 (UniProt P78549),0.0079,0.219,0.431,-0.105
NUP205 C1216 (UniProt Q92621),-0.154,0.105,-0.476,-0.0756
NUDT5 C76,-0.00712,-0.0285,0.0525,0.00974
OGDH C395 (UniProt Q02218),-0.121,-0.121,-0.269,-0.0928
NSD1 C342 (UniProt Q96L73),0.332,0.381,0.187,0.383
NSF C264 (UniProt P46459),0.555,0.152,0.382,0.155
NVL C192 (UniProt O15381),-0.106,0.0912,0.0327,0.281

# The list goes on.

Target,log2 mean competition ratio ([1]; 50 µM),log2 mean competition ratio ([1]; 200 µM),log2 mean competition ratio ([2]; 50 µM),log2 mean competition ratio ([2]; 200 µM)
NSD3 C627 (UniProt Q9BZ95),-0.412,0.0907,-0.116,0.0723
OBSL1 C581 (UniProt O75147),0.287,-0.348,0.77,-0.226
OSBP C224 (UniProt P22059),-0.316,0.137,-0.306,0.078
NUMBL C206 (UniProt Q9Y6R0),-0.0103,0.128,0.195,0.0322
OAT C150 (UniProt P04181),-0.025,0.0767,0.219,0.0849
NSDHL C132,-0.112,-0.269,0.268,-0.189
NUP88 C155 (UniProt Q99567),-0.307,-0.513,-0.383,-0.684
OBI1 C65 (UniProt Q5W0B1),-0.0528,0.191,-0.447,0.318
NUP98 C1068 (UniProt P52948),0.0618,0.163,0.234,0.131
NT5C2 C181,0.0589,-0.214,-0.169,-0.0944
NSUN6 C242 (UniProt Q8TEA1),-0.11,0.086,-0.0926,0.028
NUDT6 C44 (UniProt P53370),-0.326,0.136,-0.171,0.157
NTPCR C110 (UniProt Q9BSD7),0.0465,0.0965,-0.0279,0.0427
OGT C531 (UniProt O15294),-0.256,-0.0976,-0.25,-0.218
NUP54 C180 (UniProt Q7Z3B4),0.274,0.747,0.0592,0.336
NUMA1 C375 (UniProt Q14980),-0.0559,-0.129,-0.504,-0.162
ODF2L C16 (UniProt Q9ULJ1),0.225,0.0369,-0.664,0.124
OPA3 C164 (UniProt Q9H6K4),-0.0636,0.0121,0.0108,0.0311
OGFR C87 (UniProt Q9NZT2),0.366,0.187,0.585,0.201
ODR4 C275 (UniProt Q5SWX8),-0.0951,-0.232,0.0976,-0.441
NUDCD2 C45 (UniProt Q8WVJ2),-0.174,-0.2,-0.366,-0.289
NVL C803 (UniProt O15381),0.00341,0.0483,0.501,0.0592
NYNRIN C1031,-0.236,-0.167,-0.0717,-0.204
ORC4 C16 (UniProt O43929),0.187,0.207,-0.00315,0.0977
